Results are given in words; binding and its absence hold for the method and conditions named. A result given as binding can be weak or reduced; the word gives no strength. For some of these results: Sequences can lack the tags named with a protein. For some of these results: In cells and extracts the contact can be indirect. Values belong to the molecule of their own block, whether it stands above or below them.
Tests used:
[1] = biological target: T1, His-OsARF17 (rice (Oryza sativa)) (UniProt Q653U3); assay: pull-down; pull-down/protein competition assay: OsARF17-His and OsIAA29-GST with increasing amounts of OsIAA21-MYC; anti-His blot of the pull-down
T1 sequence: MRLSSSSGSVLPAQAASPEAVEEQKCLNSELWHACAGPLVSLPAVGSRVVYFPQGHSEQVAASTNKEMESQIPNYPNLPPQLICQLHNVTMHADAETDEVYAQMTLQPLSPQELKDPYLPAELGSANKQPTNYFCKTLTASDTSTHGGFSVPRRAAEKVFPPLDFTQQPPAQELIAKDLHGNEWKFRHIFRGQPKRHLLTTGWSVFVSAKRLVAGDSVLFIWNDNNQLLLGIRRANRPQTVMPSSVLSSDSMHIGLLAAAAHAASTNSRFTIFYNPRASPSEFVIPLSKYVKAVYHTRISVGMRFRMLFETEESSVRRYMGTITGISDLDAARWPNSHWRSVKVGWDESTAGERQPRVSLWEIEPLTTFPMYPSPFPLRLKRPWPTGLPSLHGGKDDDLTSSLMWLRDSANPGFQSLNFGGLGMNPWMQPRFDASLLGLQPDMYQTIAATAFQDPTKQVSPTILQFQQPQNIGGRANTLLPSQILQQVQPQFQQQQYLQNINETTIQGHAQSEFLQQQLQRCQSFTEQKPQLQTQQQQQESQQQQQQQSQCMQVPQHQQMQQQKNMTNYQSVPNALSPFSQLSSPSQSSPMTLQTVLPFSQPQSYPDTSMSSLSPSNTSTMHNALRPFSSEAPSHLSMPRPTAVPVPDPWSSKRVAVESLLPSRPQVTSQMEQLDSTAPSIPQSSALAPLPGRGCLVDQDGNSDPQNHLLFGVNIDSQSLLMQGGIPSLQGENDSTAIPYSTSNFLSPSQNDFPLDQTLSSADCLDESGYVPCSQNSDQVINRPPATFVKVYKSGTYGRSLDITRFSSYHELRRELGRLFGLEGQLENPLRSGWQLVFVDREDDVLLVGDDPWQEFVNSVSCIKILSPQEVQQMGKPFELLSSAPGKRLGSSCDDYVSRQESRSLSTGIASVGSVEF

[2] = biological target: T2, OsARF17 in pBridge (yeast three-hybrid bait) (rice (Oryza sativa)) (UniProt Q653U3); assay: yeast three-hybrid; pBridge-OsARF17-OsIAA29 with OsIAA21-pGADT7 in yeast Y2H Gold; OsIAA29 co-expressed or not; growth on SD (-Met-His-Leu-Trp)
T2 sequence: T1 sequence

[3] = biological target: OsIAA29 fused to the DNA binding domain (BD), yeast two-hybrid (rice (Oryza sativa)); assay: two-hybrid; OsIAA29 in BD vector (pGBKT7), OsARF17 in AD vector (pGADT7), yeast AH109; growth on QDO (SD/-Leu/-Trp/-His/-Ade) with X-alpha-Gal
[4] = biological target: GST-OsIAA29 (rice (Oryza sativa)); assay: pull-down; GST-OsIAA29 on Glutathione beads with His-OsARF17, incubated overnight at 4 °C, beads washed ten times; western blot with anti-GST or anti-His
[5] = biological target: GST-OsIAA29 (rice (Oryza sativa)); assay: pull-down; pull-down/protein competition assay: OsARF17-His and OsIAA29-GST with increasing amounts of OsIAA21-MYC; anti-His blot of the pull-down
[6] = biological target: OsIAA29-YFP^N (rice (Oryza sativa)); assay: split reporter; BiFC in rice protoplasts, OsIAA29 in pVYNE and OsARF17 in pVYCE, confocal microscopy

binding [2]: binds
Molecule: OsIAA21-pGADT7 (yeast three-hybrid prey) (rice (Oryza sativa))

binding [2]: binds
Molecule: OsIAA29 co-expressed from pBridge-OsARF17-OsIAA29 (yeast three-hybrid, third protein) (rice (Oryza sativa))

binding [4]: binds
binding [5]: binds
B2: His-OsARF17 (protein, UniProt Q653U3 1-917)
chain: T1 sequence

Continued, molecule first:

Molecule: OsIAA21-MYC (rice (Oryza sativa))
binding [1]: binds

B1: OsARF17 fused to the activation domain (AD), yeast two-hybrid (protein, UniProt Q653U3 1-917)
chain: T1 sequence
binding [3]: binds

B3: OsARF17-YFP^C (protein, UniProt Q653U3 1-917)
chain: T1 sequence
binding [6]: binds
